What all share (assay): cleaved PARP positive nuclei fraction relative to DMSO control; melanoma cells; higher = more apoptosis
Common to all, as to settings: library dose: low library concentration; 72 h

The test system of test [1] is 501Mel.
The test system of test [2] is A101D.
The subject of test [3] is A2058.
In test [4] the test system is A375.
Test [5] relates to C32.
Test [6] relates to CBRC013 (line from a melanoma biopsy).
In test [7] the test system is CBRC014 (line from a melanoma biopsy).
In test [8] the test system is CBRC016 (line from a melanoma biopsy).
Test [9] deals with CBRC017 (line from a melanoma biopsy).

Data on 12 compounds can be found in the supplement of paper PMC4604168 (melanoma cell lines).

The other results are listed elsewhere or left out. Single values are uncertain, as repeats are few or missing.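 The apoptosis fraction was the count of cleaved-PARP antibody-stained nuclei relative to all DNA-stained nuclei, imaged in 1,536-well plates. Screening doses were set so most cells survived, and baseline and induced cleaved-PARP levels vary greatly across cell lines.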

Regarding `CN(C)S(=O)(=O)c1ccc2c(c1)/C(=C/c1cc3c([nH]1)CCCC3)C(=O)N2` + C/C(O)=C(\C#N)C(=O)Nc1cc(Br)ccc1Br [LFM-A13] (first compound 0.4 µM, partner dose 2 µM), the “cleaved PARP positive nuclei fraction” value in [1] turned out to be 73.9%; in [2], 135%; in test [3], 107%; in [4], 80.9%; in [5] it was 73.5%; in test [6] it was 49.6%. The “cleaved PARP positive nuclei fraction” value in test [7] stood at 127%; in test [8], 139%; in test [9], 86%.

Take `Cn1nnc2c(C(N)=O)ncn2c1=O` [temozolomide] + O=C(Oc1ccc([N+](=O)[O-])cc1)N1CCC(C(O)(c2ccc3c(c2)OCO3)c2ccc3c(c2)OCO3)CC1 [JZL184] (first compound 2 µM, partner dose 1 µM): the “cleaved PARP positive nuclei fraction” value in [1] came to 70.3%; in test [2], 41.4%; in test [3], 128%; in [4], 55.5%; in test [5], 68.3%; in [6], 76.5%. Also, the figures for the “cleaved PARP positive nuclei fraction” value in [7], in test [8] and in test [9] were 107%, 79.4% and 44.3%, respectively.

On to `CN(NC(=O)CC(=O)NN(C)C(=S)c1ccccc1)C(=S)c1ccccc1` + C/C(O)=C(\C#N)C(=O)Nc1cc(Br)ccc1Br [LFM-A13] (first compound 0.006 µM, partner dose 2 µM), for which the “cleaved PARP positive nuclei fraction” value in test [1] is 210%; in [2], 55.1%; in test [3], 236%; in [4], 3640%; in test [5], 102%; in test [6], 306%. Moreover, the “cleaved PARP positive nuclei fraction” value in test [7] came to 383%; in test [8] it was 277%; in [9], 188%.

As to `Cn1nnc2c(C(N)=O)ncn2c1=O` [temozolomide] + Cc1cc(SCc2sc(-c3ccc(C(F)(F)F)c(F)c3)nc2C)ccc1OCC(=O)O [GW0742] (first compound 2 µM, partner dose 2 µM), the “cleaved PARP positive nuclei fraction” value in test [1] was 89.5%; in test [2] it was 218%; in [3], 91.5%; in test [4], 63.5%; in [5] it was 26.4%; in test [6] it was 96.5%. The results for the “cleaved PARP positive nuclei fraction” value in test [7], in [8] and in [9] were 115%, 23% and 193%, respectively.

In the case of `O=C(O)c1ccc(-c2c[nH]c3ncc(-c4ccccc4)cc23)cc1C1CCCC1` + C/C(O)=C(\C#N)C(=O)Nc1cc(Br)ccc1Br [LFM-A13] (first compound 0.16 µM, partner dose 2 µM), the “cleaved PARP positive nuclei fraction” value in test [1] turned out to be 48.1%; in test [2] it was 140%; in test [3], 83.7%; in [4], 257%; in [5], 96.6%; in [6], 152%. Also, the “cleaved PARP positive nuclei fraction” value in [7] worked out at 250%; in [8], 94.9%; in [9], 94%.

With `O=C(Oc1ccc([N+](=O)[O-])cc1)N1CCC(C(O)(c2ccc3c(c2)OCO3)c2ccc3c(c2)OCO3)CC1` + O=c1cc(-c2cccc3c2Sc2ccccc2S3)oc(N2CCOCC2)c1 [KU55933] (first compound 1 µM, partner dose 1 µM), the “cleaved PARP positive nuclei fraction” value in [1] came to 72.9%; in [2], 146%; in [3], 113%; in test [4] it was 169%; in test [5], 88.2%; in [6], 199%. The results for the “cleaved PARP positive nuclei fraction” value in test [7], in [8] and in [9] were 103%, 45.8% and 83.5%, respectively.

As for `C[As](C)SC[C@H](NC(=O)CC[C@H](N)C(=O)O)C(=O)NCC(=O)O` [Darinaparsin] + O=C(O)C(=O)Nc1sc2c(c1C(=O)O)CCNC2 [TCS401] (first compound 0.4 µM, partner dose 1.66667 µM), the “cleaved PARP positive nuclei fraction” value was found to be 44.9% in [1]; 230% in test [2]; 133% in test [3]; 70.5% in test [4]; 54.7% in test [5]; 30.8% in test [6]. For the same compound, the “cleaved PARP positive nuclei fraction” value in test [7] was determined as 98.2%; in test [8] it was 25.2%; in [9] it was 173%.

As to `C/C(O)=C(\C#N)C(=O)Nc1cc(Br)ccc1Br` + O=C1NC(=O)/C(=C/c2ccc(-c3ccc(F)cc3O)o2)S1 [AS252424] (first compound 2 µM, partner dose 1 µM), the “cleaved PARP positive nuclei fraction” value came to 131% in test [1]; 117% in [2]; 33.9% in [3]; 145% in [4]; 69.9% in test [5]; 141% in [6]. The results for the “cleaved PARP positive nuclei fraction” value in test [7], in test [8] and in [9] were 97.8%, 87.6% and 91.2%, respectively.

For `C[As](C)SC[C@H](NC(=O)CC[C@H](N)C(=O)O)C(=O)NCC(=O)O` [Darinaparsin] + Cc1cc([N+](=O)[O-])ccc1NS(=O)(=O)c1cc(Cl)ccc1Cl [FH535] (first compound 0.4 µM, partner dose 1 µM), the “cleaved PARP positive nuclei fraction” value in test [1] came to 41%; in test [2], 125%; in test [3] it was 68.5%; in test [4], 82.1%; in test [5], 86.6%; in [6] it was 172%. Also, the “cleaved PARP positive nuclei fraction” value in test [7] is 108%; in test [8], 433%; in test [9], 282%.

Regarding `COC(=O)c1sccc1S(=O)(=O)Nc1ccc(Nc2ccccc2)cc1OC` + O=C(Oc1ccc([N+](=O)[O-])cc1)N1CCC(C(O)(c2ccc3c(c2)OCO3)c2ccc3c(c2)OCO3)CC1 [JZL184] (first compound 1 µM, partner dose 1 µM), the “cleaved PARP positive nuclei fraction” value in test [1] turned out to be 31.5%; in [2], 68.2%; in [3] it was 75.5%; in test [4], 304%; in test [5] it was 32.8%; in test [6], 65.7%. For the same compound, the “cleaved PARP positive nuclei fraction” value in test [7] was 87.5%; in test [8], 63.8%; in test [9], 81.8%.

As to `Cc1cc(N2CCOCC2)cc2[nH]c(-c3c(NC[C@@H](O)c4cccc(Cl)c4)cc[nH]c3=O)nc12` + O=C(Oc1ccc([N+](=O)[O-])cc1)N1CCC(C(O)(c2ccc3c(c2)OCO3)c2ccc3c(c2)OCO3)CC1 [JZL184] (first compound 0.2 µM, partner dose 1 µM), the “cleaved PARP positive nuclei fraction” value was determined as 93.2% in test [1]; 110% in test [2]; 139% in test [3]; 202% in test [4]; 66.9% in [5]; 44.7% in test [6]. In addition, the “cleaved PARP positive nuclei fraction” value in test [7] came to 105%; in [8], 9430%; in test [9], 81.3%.

For the compound `Oc1nc(-c2ccc(C(F)(F)F)cc2)nc2c1CSCC2` + O=C(Oc1ccc([N+](=O)[O-])cc1)N1CCC(C(O)(c2ccc3c(c2)OCO3)c2ccc3c(c2)OCO3)CC1 [JZL184] (first compound 2 µM, partner dose 1 µM), the “cleaved PARP positive nuclei fraction” value was 86.7% in test [1]; 166% in test [2]; 172% in [3]; 90.4% in test [4]; 60.6% in [5]; 46.2% in [6]. Also, the entries for the “cleaved PARP positive nuclei fraction” value in [7], in [8] and in test [9] were 175%, 64.4% and 78.3%, respectively.
